1 molecule from patent publication US20140314784A1 can be followed below.

Chains of the proteins cited; added tags and fusions are not shown. Lines headed by an entry give the natural chain unless they say otherwise; changes in a name come on top.
UniProt P70658: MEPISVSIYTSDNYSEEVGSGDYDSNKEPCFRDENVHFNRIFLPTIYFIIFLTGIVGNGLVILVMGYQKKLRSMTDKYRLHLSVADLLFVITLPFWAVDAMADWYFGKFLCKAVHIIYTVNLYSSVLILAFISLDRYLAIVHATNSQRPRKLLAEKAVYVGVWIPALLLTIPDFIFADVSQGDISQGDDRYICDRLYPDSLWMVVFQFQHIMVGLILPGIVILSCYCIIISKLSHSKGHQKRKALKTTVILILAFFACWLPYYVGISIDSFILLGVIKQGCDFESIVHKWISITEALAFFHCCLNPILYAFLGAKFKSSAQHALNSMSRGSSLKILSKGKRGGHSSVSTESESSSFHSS

Test [1] deals with mouse CXCR4 (mouse) (UniProt P70658). In words: flow cytometry, CHO cells transiently transfected with MoCXCR4, dot plot SSC-A against PE-A.
The target is the same in test [2]. Kind of test: staining of mouse lymphocytes and EL4 cells; mouse lymphocytes and mouse B-cell line EL4 (endogenous mouse CXCR4).
For test [3] the target is unchanged. Kind of test: stated in the epitope mapping example (swap mutants); general conclusion stated in the swap-mutant epitope mapping example.

These are yes or no findings as the source states them, for the method shown.

B1: 6C7 (antibody, V domains shown)
VH: QVQLVESGGGVVQPGRSLRLSCAASGFTFSNYVMHWVRQAPGKGLEWVAVIWYDGSNKYYADSVKGRFTISRDNSKNTLSLQMNSLRAEDTAVYYCERGEGYYGSGSRYRGYYYGMDVWGQGTTVTVSS
VL: DIQMTQSPSSLSASVGDRVTITCRASQGIRTDLGWYQQKPGKAPKRLIYAASSLQSGVPSRFSGSGSGTEFTLTISSLQPEDFATYYCLQHNSYPRTFGQGTKVEIK
Take B1: the results for the binding entry in test [1], in test [2] and in test [3] were “no binding (tested: 0.1 µg/ml)”, “no binding” and “no binding”, respectively.
